{"source": "PubChem BioAssay AID330", "about": "(DTP/NCI, 2004)", "system": "P388 leukemia ip, CD2F1 mice, survival T/C", "experiment": "NCI In Vivo Anticancer Drug Screen. Data for tumor model P388 Leukemia (intraperitoneal) in CD2F1 (CDF1) mice", "conditions": "T/C endpoint: median survival time, higher T/C = longer survival", "key": {"[1]": {"conditions": "dose: 400.0 mg/kg/injection, schedule: Q01DX001 (ip), vehicle: saline with Tween-80"}, "[2]": {"conditions": "dose: 100.0 mg/kg/injection, schedule: Q01DX009 (ip), vehicle: saline with Tween-80"}, "[3]": {"conditions": "dose: 200.0 mg/kg/injection, schedule: Q01DX009 (ip), vehicle: saline with Tween-80"}, "[4]": {"conditions": "dose: 400.0 mg/kg/injection, schedule: Q01DX009 (ip), vehicle: saline with Tween-80"}, "[5]": {"conditions": "dose: 200.0 mg/kg/injection, schedule: Q01DX005 (ip), vehicle: Klucel (hydroxypropylcellulose) (HPC)"}, "[6]": {"conditions": "dose: 200.0 mg/kg/injection, schedule: Q01DX009 (ip), vehicle: saline"}, "[7]": {"conditions": "dose: 100.0 mg/kg/injection, schedule: Q01DX009 (ip), vehicle: water"}}, "note": "The list does not hold the whole screen: it is rich in T/C values a quarter to a half above the control, in often repeated tests (any T/C) and in doses without a T/C. Other doses and runs of a compound stand elsewhere. T/C is the treated group as % of the vehicle group. Some doses have a count of surviving animals in place of a T/C: the source files T/C as zero there, which appears to mark a toxic dose or a test without result, not a measured value. Some survivor counts are full or nearly so, which does not show that the dose was tolerated: the source hardly ever lists a survival T/C far under the control, and the zero likely stands for such cases as well. Survivors were counted at the toxicity check, usually on the fifth day, unless a day is given; later deaths do not show. Schedule codes are those of the source, read here as Q, the interval in days (D) or hours (H), X, the number of doses. Some doses were run more than once; the results are listed from low to high. For survival time, this PubChem deposit counts one and a half times the control or more as active, and values a quarter to a half above the control carry no call in these data; other NCI protocols may use other cut-offs.", "data": [{"smiles": "CC1C(=O)C(Cl)(Cl)C1(C)C", "note": "(stereo not drawn)", "values": [{"measurement": "survivor count", "setting": "[1]", "result": "1 of 6"}]}, {"smiles": "COC(=O)/C=C(\\I)C(=O)OC", "values": [{"measurement": "survivor count", "setting": "dose: 50.0 mg/kg/injection, schedule: Q01DX009 (ip), vehicle: saline with Tween-80", "result": "0 of 6"}, {"measurement": "survivor count", "setting": "[2]", "result": "0 of 6"}, {"measurement": "survivor count", "setting": "[3]", "result": "0 of 6"}]}, {"smiles": "[Cu].[NH-]C1CCCC2CCC[N-]C12.[NH-]C1CCCC2CCC[N-]C12", "note": "(stereo not drawn)", "values": [{"measurement": "survivor count", "setting": "dose: 25.0 mg/kg/injection, schedule: Q04DX002 (ip), vehicle: saline with Tween-80", "result": "3 of 6"}, {"measurement": "survivor count", "setting": "dose: 50.0 mg/kg/injection, schedule: Q04DX002 (ip), vehicle: saline with Tween-80", "result": "0 of 6"}]}, {"smiles": "O=[N+]([O-])c1ccc(Cl)c2c([N+](=O)[O-])cccc12", "values": [{"measurement": "survivor count", "setting": "[3]", "result": "4 of 6"}, {"measurement": "survivor count", "setting": "[4]", "result": "1 of 6"}]}, {"smiles": "COc1ccc2nc(-n3[nH]c(C)c(-c4cc(C)nn4-c4ccccc4)c3=O)cc(C)c2c1", "values": [{"measurement": "survivor count", "setting": "[1]", "result": "6 of 6"}]}, {"smiles": "NNc1c(C(N)=O)c2c(N)ncnc2n1C1OC(CO)C(O)C1O", "note": "(stereo not drawn)", "values": [{"measurement": "survivor count", "setting": "dose: 50.0 mg/kg/injection, schedule: Q01DX005 (ip), vehicle: Klucel (hydroxypropylcellulose) (HPC)", "result": "6 of 6"}, {"measurement": "T/C", "setting": "dose: 50.0 mg/kg/injection, schedule: Q04DX003 (ip), vehicle: water", "result": "127 % of control"}, {"measurement": "survivor count", "setting": "dose: 100.0 mg/kg/injection, schedule: Q01DX005 (ip), vehicle: Klucel (hydroxypropylcellulose) (HPC)", "result": "6 of 6"}, {"measurement": "survivor count", "setting": "[5]", "result": "0 of 6"}, {"measurement": "survivor count", "setting": "dose: 200.0 mg/kg/injection, schedule: Q04DX003 (ip), vehicle: Klucel (hydroxypropylcellulose) (HPC)", "result": "4 of 6"}, {"measurement": "survivor count", "setting": "dose: 400.0 mg/kg/injection, schedule: Q04DX003 (ip), vehicle: Klucel (hydroxypropylcellulose) (HPC)", "result": "0 of 6"}, {"measurement": "survivor count", "setting": "dose: 400.0 mg/kg/injection, schedule: Q04DX003 (ip), vehicle: water", "result": "4 of 6"}]}, {"smiles": "Cc1ncc(CSC(=N)N)n1Cc1ccccc1", "values": [{"measurement": "T/C", "setting": "dose: 13.0 mg/kg/injection, schedule: Q01DX009 (ip), vehicle: saline", "result": "125 % of control"}, {"measurement": "T/C", "setting": "dose: 20.0 mg/kg/injection, schedule: Q01DX009 (ip), vehicle: saline", "result": "132 % of control"}, {"measurement": "T/C", "setting": "dose: 50.0 mg/kg/injection, schedule: Q01DX009 (ip), vehicle: saline", "result": "128 % of control"}, {"measurement": "survivor count", "setting": "dose: 100.0 mg/kg/injection, schedule: Q01DX009 (ip), vehicle: saline", "result": "1 of 6"}, {"measurement": "survivor count", "setting": "[6]", "result": "0 of 6"}]}, {"smiles": "Cc1cc(C)nc(C2=C(O)c3ccccc3C2=O)c1", "values": [{"measurement": "survivor count", "setting": "dose: 60.0 mg/kg/injection, schedule: Q01DX005 (ip), vehicle: Klucel (hydroxypropylcellulose) (HPC)", "result": "5 of 6"}, {"measurement": "survivor count", "setting": "dose: 120.0 mg/kg/injection, schedule: Q01DX005 (ip), vehicle: Klucel (hydroxypropylcellulose) (HPC)", "result": "3 of 6"}]}, {"smiles": "Cc1cc(C)c(S(=O)(=O)O)c(C)c1Nc1ccc(Nc2c(C)cc(C)c(S(=O)(=O)O)c2C)c2c1C(=O)c1ccccc1C2=O", "values": [{"measurement": "survivor count", "setting": "[3]", "result": "3 of 6"}]}, {"smiles": "CC(C)C12OC1C1OC13C1(C)CCC4=C(COC4=O)C1CC1OC13C2=O", "note": "(stereo not drawn)", "values": [{"measurement": "T/C", "setting": "dose: 10.0 mg/kg/injection, schedule: Q01DX005 (ip), vehicle: saline + alcohol", "result": "126 % of control"}]}, {"smiles": "COC(=O)/C(=C1/OC(=O)C(c2ccc(Cl)cc2)=C1O)c1ccc(OC)cc1", "values": [{"measurement": "survivor count", "setting": "[5]", "result": "0 of 6"}]}, {"smiles": "CC(=O)OC1CC(OC(C)=O)C2(C)CC3=C(O)C(=O)OC3CC(C)C12", "note": "(stereo not drawn)", "values": [{"measurement": "survivor count", "setting": "dose: 400.0 mg/kg/injection, schedule: Q04DX002 (ip), vehicle: saline with Tween-80", "result": "1 of 6"}]}, {"smiles": "COc1ccccc1NC(=O)Cc1nc(=O)[nH]c(=O)[nH]1", "values": [{"measurement": "survivor count", "setting": "dose: 50.0 mg/kg/injection, schedule: Q01DX009 (ip), vehicle: Klucel (hydroxypropylcellulose) (HPC)", "result": "4 of 6"}]}, {"smiles": "ClCCN(CCCl)c1ccc(CNCCCNCc2ccc(N(CCCl)CCCl)cc2)cc1", "values": [{"measurement": "T/C", "setting": "dose: 1.25 mg/kg/injection, schedule: Q01DX009 (ip), vehicle: saline sonified", "result": "142 % of control"}]}, {"smiles": "[Cl][Hg][CH]1CCC2OC1CC[CH]2[Hg][Cl]", "note": "(stereo not drawn)", "values": [{"measurement": "T/C", "setting": "dose: 6.25 mg/kg/injection, schedule: Q01DX009 (ip), vehicle: saline with Tween-80", "result": "127 % of control"}, {"measurement": "survivor count", "setting": "dose: 12.5 mg/kg/injection, schedule: Q01DX009 (ip), vehicle: saline with Tween-80", "result": "1 of 6"}, {"measurement": "survivor count", "setting": "dose: 25.0 mg/kg/injection, schedule: Q01DX009 (ip), vehicle: saline with Tween-80", "result": "0 of 6"}, {"measurement": "survivor count", "setting": "[2]", "result": "0 of 6"}, {"measurement": "survivor count", "setting": "[3]", "result": "0 of 6"}, {"measurement": "survivor count", "setting": "[4]", "result": "0 of 6"}]}, {"smiles": "CCCCN=NN/C=C/C(C)(C)C", "values": [{"measurement": "T/C", "setting": "dose: 100.0 mg/kg/injection, schedule: Q01DX005 (ip), vehicle: saline with Tween-80", "result": "128 % of control"}, {"measurement": "T/C", "setting": "dose: 200.0 mg/kg/injection, schedule: Q01DX005 (ip), vehicle: saline with Tween-80", "result": "130 % of control"}]}, {"smiles": "O=Cc1nnc(-c2ccccc2)o1", "values": [{"measurement": "survivor count", "setting": "dose: 50.0 mg/kg/injection, schedule: Q01DX009 (ip), vehicle: DMSO", "result": "6 of 6"}, {"measurement": "survivor count", "setting": "dose: 100.0 mg/kg/injection, schedule: Q01DX009 (ip), vehicle: DMSO", "result": "5 of 6"}, {"measurement": "survivor count", "setting": "dose: 200.0 mg/kg/injection, schedule: Q01DX009 (ip), vehicle: DMSO", "result": "1 of 6"}]}, {"smiles": "O=c1[nH]cnc2cc3c(cc12)nc1n3CCOC1", "values": [{"measurement": "survivor count", "setting": "dose: 400.0 mg/kg/injection, schedule: Q04DX003 (ip), vehicle: saline", "result": "2 of 6"}]}, {"smiles": "COC12CC(=O)C(C(C)=O)=C(O)C1(C)c1c(OC(C)=O)c(C)c(O)c(C(C)=O)c1O2", "note": "(stereo not drawn)", "values": [{"measurement": "survivor count", "setting": "dose: 100.0 mg/kg/injection, schedule: Q01DX009 (ip), vehicle: gum acacia", "result": "0 of 6 and 6 of 6"}, {"measurement": "survivor count", "setting": "dose: 200.0 mg/kg/injection, schedule: Q01DX009 (ip), vehicle: gum acacia", "result": "0 of 6"}]}, {"smiles": "Nc1n[n+](-c2cccc([N+](=O)[O-])c2)no1", "values": [{"measurement": "T/C", "setting": "dose: 12.5 mg/kg/injection, schedule: Q01DX009 (ip), vehicle: other", "result": "127 % of control"}, {"measurement": "T/C", "setting": "dose: 12.5 mg/kg/injection, schedule: Q01DX009 (ip), vehicle: water", "result": "137 % of control"}, {"measurement": "T/C", "setting": "dose: 25.0 mg/kg/injection, schedule: Q01DX009 (ip), vehicle: other", "result": "139 % of control"}, {"measurement": "survivor count", "setting": "dose: 50.0 mg/kg/injection, schedule: Q01DX009 (ip), vehicle: water", "result": "4 of 6"}, {"measurement": "survivor count", "setting": "[7]", "result": "0 of 6"}]}, {"smiles": "CCCCCCCCCCCCCCCCCC[N+]1([O-])CCCC1", "values": [{"measurement": "survivor count", "setting": "[7]", "result": "5 of 6"}, {"measurement": "survivor count", "setting": "dose: 200.0 mg/kg/injection, schedule: Q01DX009 (ip), vehicle: water", "result": "0 of 4"}]}, {"smiles": "CCN(CC)CCCNC(c1ccc(OC)c(OC)c1)C(Cl)(Cl)Cl", "note": "(stereo not drawn)", "values": [{"measurement": "survivor count", "setting": "dose: 240.0 mg/kg/injection, schedule: Q01DX005 (ip), vehicle: saline", "result": "1 of 6"}]}, {"smiles": "COc1ccc(/C=C2\\N=C(c3ccccc3)OC2=O)c(OCc2ccccc2)c1", "values": [{"measurement": "survivor count", "setting": "dose: 50.0 mg/kg/injection, schedule: Q01DX009 (ip), vehicle: other", "result": "6 of 6"}]}, {"smiles": "C=C(C(=O)O)C(=O)O", "values": [{"measurement": "survivor count", "setting": "[6]", "result": "4 of 6"}]}]}
